In patent US20030082190A1:
These are yes or no findings as the source states them, for the method shown. Some binding calls cover weakened binding; strength is not graded here. Tags and fused reporters may be left off the sequences shown.

Chains of the proteins cited; added tags and fusions are not shown. Residues count along the entry.
UniProt P31994, residues 43-310: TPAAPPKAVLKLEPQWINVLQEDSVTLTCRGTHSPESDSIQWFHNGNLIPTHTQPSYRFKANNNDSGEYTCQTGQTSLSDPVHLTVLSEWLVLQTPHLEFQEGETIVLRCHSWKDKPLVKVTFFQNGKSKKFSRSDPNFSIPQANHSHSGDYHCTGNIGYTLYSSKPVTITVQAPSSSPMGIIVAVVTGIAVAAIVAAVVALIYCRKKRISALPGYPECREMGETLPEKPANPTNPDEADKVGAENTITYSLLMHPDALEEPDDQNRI
UniProt P12319, residues 26-257: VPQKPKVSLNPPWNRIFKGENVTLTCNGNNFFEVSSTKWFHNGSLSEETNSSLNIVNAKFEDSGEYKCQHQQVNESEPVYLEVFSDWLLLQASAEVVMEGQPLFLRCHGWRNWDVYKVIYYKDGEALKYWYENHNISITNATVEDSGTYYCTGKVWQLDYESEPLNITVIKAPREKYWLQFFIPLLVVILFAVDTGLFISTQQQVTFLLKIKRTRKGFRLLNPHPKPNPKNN

Columns and labels:
[1] = molecular target: human FcγRII (FcγRIIb) expressed on HMC-1 cells (human) (UniProt P31994); assay: flow cytometry on HMC-1 cells, FITC anti-human IgE or IgG detection
[2] = molecular target: high-affinity IgE receptor FcεRI expressed on transfected CHO 3D10 cells (UniProt P12319); assay: flow cytometry on FcεRI transfected CHO 3D10 cells, FITC anti-human IgE or IgG detection
[3] = molecular target: human FcγRII (FcγRIIb) expressed on HMC-1 cells (human) (UniProt P31994); assay: flow cytometry on HMC-1 cells
[4] = molecular target: high-affinity IgE receptor FcεRI expressed on transfected CHO 3D10 cells (UniProt P12319); assay: flow cytometry on CHO 3D10 cells

Measured: binding

B1: γhinge-CHγ2-CHγ3-(Gly4Ser)3-CHε2-CHε3-CHε4 fusion molecule (GE2) (Fc fusion)
chain: EPKSCDKTHTCPPCPAPELLGGPSVFLFPPKPKDTLMISRTPEVTCVVVDVSHEDPEVKFNWYVDGVEVHNVKTKPREEQYNSTYRVVSVLTVLHQNWMNGKEYKCKVSNKALPAPIEKTISKAKVQPREPQVYTLPPSRDELTKNQVSLTCLVKGFYPSDIAVEWESNGQPENNYKTTPPVLDSVGSFFLYSKLTVDKSRWQQGNVFSCSVMHEALHNHYQQRSLSLSPGKVEGGGGSGGGGSGGGGSFTPPTVKILQSSCDGGGHFPPTIQLLCLVSGYTPGTINITWLEDGQVMDVDLSTASTTQEGELASTQSELTLSQKHWLSDRTYTCQVTYQGHTFEDSTKKCADSNPRGVSAYLSRPSPFDLFIRKSPTITCLVVDLAPSKGTVNLTWSRASGKPVNHSTRKEEKQRNGTLTVTSTLPVGTRDWIEGETYQCRVTHPHLPRALMRSTTKTSGPRAAPEVYAFATPEWPGSRDKRTLACLIQNFMPEDISVQWLHNEVQLPDARHSTTQPRKTKGSGFFVFSRLEVTRAEWEQKDEFICRAVHEAASPSQTVQRAVSVNPGK
binds: [1] | [2] | [3] | [4]
